No constants are given. Whether binding was seen depends on the method and setting. Binding calls can cover weak binding; strength is not graded here. Sequences can lack the tags named with a protein.
Legend:
[1] = molecular target: GD1 domain of EngA, BACTH fusions (Synechococcus elongatus PCC7942); test: two-hybrid; bacterial two-hybrid (BACTH, reconstitution of B. pertussis adenylate cyclase from T18 and T25) in E. coli BTH101; plate assays on MacConkey-lactose and M63-maltose + X-gal, 0.5 mM IPTG, 30°C; signals classed by eye into five levels
[2] = molecular target: EngA, BACTH fusions (Synechococcus elongatus PCC7942) (UniProt Q31KP9); test: as above
[3] = molecular target: His-EngA (N-terminally His-tagged EngA) (Synechococcus elongatus PCC7942) (UniProt Q31KP9); test: pull-down; His-EngA or His-GD1 (6 μg) bound to DynaBeads-Histag, 6 μg PipX–ST added; 50 mM Tris-HCl pH 7, 0.1 M KCl, 10% glycerol, 10 mM MgCl2, 20 mM imidazole, 0.1% Triton-X100, with or without 1 mM GDP, room temperature; elution with 500 mM imidazole; Western blot with antisera against PipX and EngA; both purified
[4] = molecular target: His-GD1 (N-terminally His-tagged GD1 domain of EngA) (Synechococcus elongatus PCC7942); test: as above

The chains behind the UniProt entries cited, without tags or fusion partners. Where a name states a change or a piece, a line headed by the entry shows the natural chain unless it says otherwise.
UniProt Q31KP9: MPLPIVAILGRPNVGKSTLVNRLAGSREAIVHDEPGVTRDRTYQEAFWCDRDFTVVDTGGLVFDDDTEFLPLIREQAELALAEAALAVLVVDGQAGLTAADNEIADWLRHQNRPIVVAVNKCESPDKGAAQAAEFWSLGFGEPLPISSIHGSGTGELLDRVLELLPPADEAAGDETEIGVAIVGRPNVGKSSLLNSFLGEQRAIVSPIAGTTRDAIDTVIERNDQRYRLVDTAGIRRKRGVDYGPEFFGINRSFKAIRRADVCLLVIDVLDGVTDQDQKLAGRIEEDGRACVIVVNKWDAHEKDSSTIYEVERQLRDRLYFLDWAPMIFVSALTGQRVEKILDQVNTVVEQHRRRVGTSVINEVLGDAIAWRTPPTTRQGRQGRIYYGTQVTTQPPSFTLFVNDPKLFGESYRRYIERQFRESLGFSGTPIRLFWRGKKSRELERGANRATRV

binding [1] | binding [2] | binding [3] | binding [4] | Binder
binds | no binding |  |  | PipX 1-70, BACTH fusions (domain or fragment, UniProt Q7X386 1-70) MASENYLNHPTFGLLYQICSFGDSKELFATLYAQRLFFLVAFDARGTRFEPIGRNEARMLVDNRLRQLRR
 | no binding |  |  | PipX 1-54, BACTH fusions (domain or fragment, UniProt Q7X386 1-54) MASENYLNHPTFGLLYQICSFGDSKELFATLYAQRLFFLVAFDARGTRFEPIGR

More lines, now with the values behind:

Binder | binding [1] | binding [2] | binding [3] | binding [4]
PipX (PII interacting protein X), BACTH fusions (protein, UniProt Q7X386 1-89) MASENYLNHPTFGLLYQICSFGDSKELFATLYAQRLFFLVAFDARGTRFEPIGRNEARMLVDNRLRQLRRDASLQEYNQLQQVFKQTFL | binds | binds |  | 
PipX–ST (C-terminally Strep-tagged PipX) (protein, UniProt Q7X386 1-89) MASENYLNHPTFGLLYQICSFGDSKELFATLYAQRLFFLVAFDARGTRFEPIGRNEARMLVDNRLRQLRRDASLQEYNQLQQVFKQTFL |  |  | binds | binds

— publication PMC8696166
